Data on 21 compounds can be found in PubChem BioAssay (NCATS).

SMILES strings stand for the structures. This is one part of the list. The main result of the screen is listed elsewhere. These columns were measured beside it and carry no call. The list favours compounds with an active or inconclusive main result. The note in brackets gives the kind of curve behind each potency; many fits are weak.

A short description of the experiment: qHTS for identification of novel therapeutic agents for treatment of microphthalmiaassociated transcription factor (MiT) renal cell carcinoma (RCC) (AID 1963991). The following applies: CellTiter-Glo, 48 h; for z-score: stronger effect = lower value. The procedure, abridged: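 Three TFE3-fusion RCC cell lines (UOK109, UOK124, UOK145), 500 cells/well, were exposed to the 1912-compound MIPE 4.0 library for 48 hours at 37 C. Viability was read by CellTiter-Glo luminescence, normalised to DMSO (100%) and empty wells (0%), with 11-concentration curve fits.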
On the technique in general: In qHTS, concentration-response curves come from the screen itself.

Where [1] appears, read: TFE3-RCC viability, measured here: UOK124 cell viability.
The mark [2] stands for this setting: TFE3-RCC viability, measured here: UOK145 cell viability.
Setting [3] is: TFE3-RCC UOK109 viability, measured here: UOK109 Z-AUC.
Where [4] appears, read: TFE3-RCC viability, measured here: UOK124 Z-AUC.
The mark [5] stands for this setting: TFE3-RCC viability, measured here: UOK145 Z-AUC.

What is called AC50 is the midpoint of the concentration-response curve, whichever way the signal moves. Consider `Cc1ccc([N+](=O)[O-])cc1S(=O)(=O)N(C)N=Cc1cnc2ccc(Br)cn12`, for which the AC50 was 33.2 nM [falling, full curve] under setting [1] and 26.4 nM [falling, full curve] under setting [2].
For `O=C(C=Cc1ccc(CN(CCO)CCc2c[nH]c3ccccc23)cc1)NO`, the AC50 by setting is: under setting [1], 332 nM [falling, full curve]; under setting [2], 1050 nM [falling, full curve].
Regarding `CCOc1cc2ncc(C#N)c(Nc3ccc(F)c(Cl)c3)c2cc1NC(=O)C=CCN(C)C`, the AC50 was 14800 nM [falling, partial curve] under setting [1] and 526 nM [falling, full curve] under setting [2].
On to `Cc1ccc(NC(=O)C2(c3ccc4c(c3)OC(F)(F)O4)CC2)nc1-c1cccc(C(=O)O)c1`, for which the AC50 was 118 nM [falling, full curve] under setting [1] and 105 nM [falling, full curve] under setting [2].
As to `O=C1NC(=O)C(=Cc2ccc3nccc(-c4ccncc4)c3c2)S1`, the AC50 runs as follows: under setting [1], 590 nM [falling, full curve]; under setting [2], 372 nM [falling, full curve].
Consider `CC[C@]1(O)C[C@H]2CN(CCC3=c4ccccc4=N[C]3[C@@](C(=O)OC)(c3cc4c(cc3OC)N(C)[C@H]3[C@@](O)(C(N)=O)[C@H](O)[C@]5(CC)C=CCN6CC[C@]43[C@@H]65)C2)C1`, for which the AC50 was 66.2 nM [falling, full curve] under setting [1] and 264 nM [falling, full curve] under setting [2].
As for `COc1ccc(-c2ccc3c(N4CCOC[C@H]4C)nc(N4CCOC[C@H]4C)nc3n2)cc1CO`, the AC50 is 37.2 nM [falling, full curve] under setting [1] and 37.2 nM [falling, full curve] under setting [2].
For the compound `CC(C)(Sc1cc(C(C)(C)C)c(O)c(C(C)(C)C)c1)Sc1cc(C(C)(C)C)c(O)c(C(C)(C)C)c1`, the z-score runs as follows: under setting [3], 0.491; under setting [4], 0.369; under setting [5], 0.363.
Take `O=C1NC(=O)C(c2cnc3ccccn23)=C1c1cn2c3c(cccc13)CN(C(=O)N1CCOCC1)CC2`: the AC50 under setting [1] was 93.5 nM [falling, partial curve] and the AC50 under setting [2] was 1320 nM [falling, partial curve].
On to `C[C@](Cc1c[nH]c2ccccc12)(NC(=O)OC1C2CC3CC(C2)CC1C3)C(=O)NC[C@H](NC(=O)CCC(=O)O)c1ccccc1` (some centres undefined), for which the z-score runs as follows: under setting [3], -0.27; under setting [4], 0.413; under setting [5], 0.0283.
Consider `CC[C@H]1CN2CCc3cc(OC)c(OC)cc3[C@H]2C[C@@H]1C[C@@H]1NCCc2cc(OC)c(OC)cc21`, for which the AC50 under setting [1] was 264 nM [falling, full curve] and the AC50 under setting [2] was 418 nM [falling, full curve, poor fit].
As for `Cc1c(CCOc2ccc(C(=O)O)cc2)c2cc(Cl)ccc2n1C(c1ccccc1)c1ccccc1`, the z-score under setting [3] amounted to 0.41, the z-score under setting [4] is -0.0138 and the z-score under setting [5] turned out to be 0.56.
The corresponding values for `COc1ccc(C=Cc2cc(OC)c(OC)c(OC)c2)cc1O` are -1.61, -3.85 and -2.7.
Consider `CN[C@@H]1C[C@H]2O[C@@](C)([C@H]1OC)n1c3ccccc3c3c4c(c5c6ccccc6n2c5c31)C(=O)N[C@H]4O`, for which the AC50 runs as follows: under setting [1], 469 nM [falling, full curve]; under setting [2], 662 nM [falling, full curve].
For the compound `Cc1[nH]c(C=C2C(=O)Nc3ccccc32)c(C)c1CCC(=O)O`, the AC50 was 662 nM [falling, full curve] under setting [1] and 833 nM [falling, full curve] under setting [2].
Take `COc1cc(=C2C=c3ccccc3=N2)[nH]c1=Cc1[nH]c(C)cc1C`: the AC50 reads like this: under setting [1], 2960 nM [falling, partial curve]; under setting [2], 5900 nM [falling, partial curve].
Take `COc1cccc2c1C(=O)c1c(O)c3c(c(O)c1C2=O)C[C@@](O)(C(C)=O)C[C@H]3O[C@H]1C[C@H](N)[C@H](O)[C@H](C)O1`: the AC50 runs as follows: under setting [1], 132 nM [falling, full curve]; under setting [2], 209 nM [falling, full curve].
As for `FC(F)(F)c1ccc(C=Cc2nc(COc3ccc(CCCCn4ccnn4)cc3)co2)cc1`, the concentration at half-maximal activity (AC50) was 5.26 nM [falling, full curve] under setting [1] and 9.35 nM [falling, full curve] under setting [2].
Take `C=C[C@@H]1CN2CCC1C[C@@H]2C(O)c1ccnc2ccc(OC)cc12` (some centres undefined): the z-score under setting [3] stood at 0.0737, the z-score under setting [4] worked out at 0.784 and the z-score under setting [5] was found to be 0.454.
The corresponding values for `O=C(O)CCNc1cc(N2CCc3ccccc3CC2)nc(-c2ccccn2)n1` are 0.504, 0.396 and 0.537.
In the same order, the values of `CCc1cc(C(C)=NOCc2ccc(C3CCCCC3)c(C(F)(F)F)c2)ccc1CN1CC(C(=O)O)C1` are -0.588, 0.405 and 0.869.
